This test concerns the target His6-Caspase 8 (human Caspase 8) (human) (UniProt Q14790). As to the kind of experiment: AlphaScreen or HTRF; both purified. Background: Bead proximity is the source of the signal in Alpha formats.

The chains behind the UniProt entries cited, without tags or fusion partners.
UniProt Q14790: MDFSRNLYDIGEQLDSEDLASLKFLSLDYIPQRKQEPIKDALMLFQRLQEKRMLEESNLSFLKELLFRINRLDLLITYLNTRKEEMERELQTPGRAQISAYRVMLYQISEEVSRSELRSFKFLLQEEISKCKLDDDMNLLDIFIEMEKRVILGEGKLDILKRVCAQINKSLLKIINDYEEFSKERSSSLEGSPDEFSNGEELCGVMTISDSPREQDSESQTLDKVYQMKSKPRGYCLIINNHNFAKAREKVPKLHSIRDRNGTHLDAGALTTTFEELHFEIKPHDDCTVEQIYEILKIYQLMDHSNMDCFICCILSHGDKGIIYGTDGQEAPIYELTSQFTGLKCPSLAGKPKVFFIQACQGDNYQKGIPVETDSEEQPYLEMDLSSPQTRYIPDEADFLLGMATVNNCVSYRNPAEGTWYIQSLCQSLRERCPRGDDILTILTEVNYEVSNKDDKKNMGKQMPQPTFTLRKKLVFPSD
UniProt P03126: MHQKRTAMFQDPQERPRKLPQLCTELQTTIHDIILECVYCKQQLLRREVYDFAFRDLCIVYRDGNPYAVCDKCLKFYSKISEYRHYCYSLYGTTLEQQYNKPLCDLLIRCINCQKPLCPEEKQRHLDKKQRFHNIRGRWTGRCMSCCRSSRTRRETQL

These are yes or no findings as the source states them, for the method shown. Some binding calls cover weakened binding; strength is not graded here.

On to “GST-E6 (full-length HPV E6) (from UniProt P03126 1-158)”, for which the binding entry is given as “binds”.
